Over roughly 33,000 sequences, “E-score (-0.5 to 0.5)” has its median near -0.0014; the highest 2% begin near 0.25. The list shows a part of the results.
target: T1, Cad1 (UniProt P24813); experiment: PBM E-score (8-mer binding enrichment) (E-score (-0.5 to 0.5)); higher = stronger / more preferred TF binding; details: protein concentration: 100 nM; construct: GST-full length
T1 sequence: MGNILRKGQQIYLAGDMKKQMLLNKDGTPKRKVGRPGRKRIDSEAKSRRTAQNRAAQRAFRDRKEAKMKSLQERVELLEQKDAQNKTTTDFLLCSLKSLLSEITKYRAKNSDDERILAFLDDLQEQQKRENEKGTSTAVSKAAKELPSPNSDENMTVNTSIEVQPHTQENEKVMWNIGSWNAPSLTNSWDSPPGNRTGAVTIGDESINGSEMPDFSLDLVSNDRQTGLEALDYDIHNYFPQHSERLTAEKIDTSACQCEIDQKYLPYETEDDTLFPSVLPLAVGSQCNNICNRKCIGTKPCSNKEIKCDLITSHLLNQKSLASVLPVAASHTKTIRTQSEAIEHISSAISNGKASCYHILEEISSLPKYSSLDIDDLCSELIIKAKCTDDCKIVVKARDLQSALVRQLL
How it was run: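 GST-tagged yeast TFs (full-length or DNA-binding domain) were made by PURExpress in vitro transcription/translation and applied at about 100-200 nM to universal all-10-mer Agilent arrays. The arrays were made double-stranded by primer extension, on fresh or once-stripped slides. Bound protein was detected with fluorescent anti-GST, and scans were normalised with masliner. Each ungapped eight-base word, pooled with its reverse complement, received an E-score (modified Wilcoxon-Mann-Whitney statistic) from the Universal PBM Analysis Suite.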

Point of comparison: AGATTACC, “PBM E-score” value 0.107. Against it:
- AATAAGGG — lower, -0.0256
- CTATCCAA — lower, -0.0799
- AACATCGG — lower, -0.0901
- TCCCTTCA — lower, -0.0837
- ACACCCAG — lower, -0.194
- AGAGAATA — lower, 0.0902
- AAACATTG — higher, 0.111
- AGTAATTC — higher, 0.23
- AGTCGAGC — lower, -0.117
- CACATCGG — lower, -0.0425
- GGCACCTA — lower, -0.156
- AGCATCTA — lower, 0.0079
- TGTATACA — higher, 0.272
- GTGCATTA — lower, 0.0248
- GCAGCCTA — lower, -0.106
- ATTTAAGC — higher, 0.161
- CGAATCCA — lower, -0.0831
- CTTCATTA — higher, 0.178
- CTACTTCC — lower, 0.0698
- TAGTGATA — lower, -0.0696
- CGAGGTAC — lower, 0.00379
- AAATGGGC — lower, -0.226
- ATATTCTA — higher, 0.231
- AGCTGACG — higher, 0.158
- GGACCAAC — lower, -0.0534
- CGACATGA — lower, -0.0493
- TAGCTTCA — lower, 0.00355
- CATATGTA — higher, 0.111
- ATAGAGCA — lower, -0.0263
- GTCAGGTA — lower, -0.0251
- GTATGTGA — lower, -0.0425
- CGTAAACA — higher, 0.256
- GACGTAGC — lower, -0.084
- ACGCTACG — lower, -0.106
- CTGTCCTC — lower, -0.205
- CTTCGGCA — lower, -0.198
- AGGTTCTC — lower, -0.134
- ACCAAATC — lower, -0.126
- CTTATGCA — higher, 0.208
- GTAAGTAC — higher, 0.178
- AGCACGAA — higher, 0.124
- AGTGAGGC — lower, -0.0305
- CCACCCAC — lower, -0.037
- GCCTGCTA — lower, -0.104
- ATTCATTC — higher, 0.188
- CATTTTAC — higher, 0.198
- AGGCCCCT — lower, -0.317
- TACTGCGA — lower, 0.0327
- CACGGACA — higher, 0.165
- TCAAACGA — lower, 0.0831
- GACATATA — lower, 0.0919
- CTCCATGA — lower, 0.0675
- AAGCGTAA — lower, -0.0377
- GAGACTTA — lower, -0.0545
- AGCCATAA — lower, 0.0866
- AGACATCC — lower, 0.0198
- AAATTGTA — higher, 0.138
- TAGTAACA — higher, 0.255
- CGCTATTC — higher, 0.216
- CAGCCGTC — higher, 0.144
- AATGCCTC — lower, -0.148
- ATTGTATG — lower, 0.0441
- ACGAGTTA — lower, -0.0705
- CCCCAAGA — lower, -0.0621
- GCAGCTTA — higher, 0.175
- GTCTAGAC — lower, -0.0167
- TAATTGCA — higher, 0.125
- ATACCGCC — lower, 0.0415
- GTCTTGTA — lower, -0.181
- ATCTGGCC — lower, -0.14
- TAATGGTA — higher, 0.14
- CCTCCCAC — lower, -0.156
- GGTCGGGA — lower, -0.026
- CTCATTCC — lower, 0.0154
- ACATACCA — lower, -0.126
- AACGTTAT — higher, 0.116
- ATTGCGGG — lower, -0.0181
- CCGGATCG — lower, 0.0999
- ACGTAACT — lower, -0.0865
- AGAGCAAC — lower, -0.18
- AGTATTTG — lower, 0.0255
- GATGACGC — lower, 0.00196
- CGGCAATC — lower, 0.0196
- CGCATGGC — lower, -0.0849
- GAAAGACA — lower, -0.00185

From the supplement of paper PMC3334620
